PubChem BioAssay AID504774, Drosophila RNAi Screening Center | 2011

- Aim: 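Genes required for cells to withstand methyl methanesulphonate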 (primary screen)
- System: Drosophila Kc167 cells
- Reagent: long dsRNA against Drosophila genes, about 0.25 µg dsRNA per well
- Timing: about 6 days: 3 days knock-down, then 3 days with or without MMS
- Challenge: methyl methanesulphonate 0.004% (w/v) for 3 days after knock-down
- Detection: 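ATP-dependent luminescence as a measure of live cells in MMS-exposed wells, quantile normalised within each plate, with replicate values also given as a mean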
- Scale: mean viability with MMS and viability with MMS: higher = more surviving cells after MMS
In all, the deposit lists about 23,000 reagents; below is an unselected part of those that have a named target and a result. 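Values are quantile-normalised luminescence on an arbitrary scale; higher means more cells surviving MMS.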 Further read-outs or replicates are left out here.

CG12869 [DRSC06208]
- mean viability with MMS: 3.56e6
- viability with MMS, replicate 1: 3.83e6

CG13912 [DRSC08381]
- mean viability with MMS: 3.62e6
- viability with MMS, replicate 1: 4.06e6

CG31808 [DRSC22962]
- mean viability with MMS: 3.60e6
- viability with MMS, replicate 1: 4.08e6

Obp83g [DRSC12269]
- mean viability with MMS: 3.57e6
- viability with MMS, replicate 1: 4.04e6

2 neighbouring entries from above, for reference:
CG12869 [DRSC06208]
- mean viability with MMS: 3.56e6
- viability with MMS, replicate 1: 3.83e6

CG13912 [DRSC08381]
- mean viability with MMS: 3.62e6
- viability with MMS, replicate 1: 4.06e6

Next entries follow:
cv-c [DRSC14969]
- mean viability with MMS: 3.61e6
- viability with MMS, replicate 1: 4.24e6

cv-c [DRSC14970]
- mean viability with MMS: 3.66e6
- viability with MMS, replicate 1: 4.19e6

cv-c [DRSC14971]
- mean viability with MMS: 3.26e6
- viability with MMS, replicate 1: 3.79e6

cv-c [DRSC14972]
- mean viability with MMS: 3.54e6
- viability with MMS, replicate 1: 3.83e6

cv-c [DRSC14973]
- mean viability with MMS: 3.52e6
- viability with MMS, replicate 1: 3.89e6

cv-c [DRSC16428]
- mean viability with MMS: 3.67e6
- viability with MMS, replicate 1: 4.29e6

cv-c [DRSC23199]
- mean viability with MMS: 3.76e6
- viability with MMS, replicate 1: 4.27e6

phr [DRSC07662]
- mean viability with MMS: 3.54e6
- viability with MMS, replicate 1: 4.06e6

sv [DRSC17221]
- mean viability with MMS: 3.57e6
- viability with MMS, replicate 1: 4.16e6

Bem46 [DRSC00275]
- mean viability with MMS: 3.50e6
- viability with MMS, replicate 1: 4.04e6
